{"sequences": {"note": "Amino acid sequences for entries named in this document (tags omitted).", "UniProt P35222": "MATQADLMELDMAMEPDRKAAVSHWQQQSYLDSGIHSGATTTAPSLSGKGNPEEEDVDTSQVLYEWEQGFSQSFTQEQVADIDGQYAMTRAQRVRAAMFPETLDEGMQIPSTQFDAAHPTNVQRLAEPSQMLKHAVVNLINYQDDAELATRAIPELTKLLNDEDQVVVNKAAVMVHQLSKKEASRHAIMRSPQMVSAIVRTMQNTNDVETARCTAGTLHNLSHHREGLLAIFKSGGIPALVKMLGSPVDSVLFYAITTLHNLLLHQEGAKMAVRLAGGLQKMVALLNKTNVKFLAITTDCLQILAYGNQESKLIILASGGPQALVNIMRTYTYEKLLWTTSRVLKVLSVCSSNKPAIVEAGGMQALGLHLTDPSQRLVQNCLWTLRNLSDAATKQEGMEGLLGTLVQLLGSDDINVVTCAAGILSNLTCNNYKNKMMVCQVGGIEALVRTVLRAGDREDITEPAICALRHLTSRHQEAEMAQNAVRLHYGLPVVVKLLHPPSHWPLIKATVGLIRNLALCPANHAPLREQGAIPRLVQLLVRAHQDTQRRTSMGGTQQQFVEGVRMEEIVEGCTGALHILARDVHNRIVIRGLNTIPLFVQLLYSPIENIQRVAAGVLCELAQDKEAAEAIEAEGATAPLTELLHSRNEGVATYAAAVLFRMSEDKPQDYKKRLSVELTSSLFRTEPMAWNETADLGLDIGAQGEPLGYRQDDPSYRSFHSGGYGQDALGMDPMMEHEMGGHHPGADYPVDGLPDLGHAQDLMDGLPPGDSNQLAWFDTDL"}, "source": "paper PMC10767235", "biological_target": "T1, peroxiredoxin 2 (human (endogenous in HepG2)) (UniProt P32119)", "T1 sequence": "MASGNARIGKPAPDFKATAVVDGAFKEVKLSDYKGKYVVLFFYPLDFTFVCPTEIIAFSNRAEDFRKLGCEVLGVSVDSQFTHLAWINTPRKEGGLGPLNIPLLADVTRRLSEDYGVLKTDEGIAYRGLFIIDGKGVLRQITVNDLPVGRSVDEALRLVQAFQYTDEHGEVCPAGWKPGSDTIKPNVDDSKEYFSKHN", "assay": "co-IP; HepG2 cells lysed in RIPA buffer; supernatant incubated overnight at 4°C with 1 μg primary antibody and 20 μl protein A/G beads; Western blot; which antibody precipitated is not stated", "note": "These are yes or no findings as the source states them, for the method shown. Binding seen in cells or lysates may run through a third protein. Some results given as binding are weak or reduced against the parent protein; the word gives no strength.", "data": [{"substance": "β-catenin (from UniProt P35222 1-781)", "values": [{"measurement": "binding", "value": "binds"}]}]}
